# At least one structure is not confirmed: it was looked up by name or label, or the drawing left a doubt.
# Test system: IRS1 and AKT
# Experiment: IRS1 and AKT phosphorylation in 3T3-L1 adipocytes (immunoblot)
# Format: cell-based
# Details: LY294002 (PI3-kinase inhibitor) pretreatment
# Protocol: Immunoblotting. For preparing total cell lysates, 3T3-L1 adipocytes were washed with Ca^2+/Mg^2+-free PBS and then lysed in the lysis buffer (50 mM HEPES, pH 7.2, 150 mM NaCl, 50 mM NaF, 1 mM Na3VO4, 10% glycerol, 1% Triton X-100). The lysates were centrifuged at 15,000 rpm for 15 min at 4° C. The proteins were denatured by boiling in laemmli sample buffer for 5 min at 95° C., separated by SDS-PAGE. SDS-gel was transferred to nitrocellulose membrane using Hoefer wet transfer system. Membranes were blocked in TTBS (20 mM Tris-HCl, pH 7.6, 150 mM NaCl, 0.05% Tween 20) containing 5% skimmed milk powder for 30 min and then incubated with antibodies for 3 hours. After washing membranes several times with TTBS, the blots were incubated with HRP (Horseradish peroxidase)-conjugated goat anti-rabbit for 1 hour. The blots were washed with TTBS and developed by ECL.
smiles,measurement,value
"O=c1cc(N2CCOCC2)oc2c(-c3ccccc3)cccc12 [LY294002, reference compound]",effect of pretreatment on LPA-stimulated Akt phosphorylation,inhibited
